For at least one entry, the source does not settle the construct or the ends of the probe. At least one verdict rests on a figure or table, not on a statement of the authors.

Protein sequences, listed by entry. Tags and fused reporters are not part of them. Residues count along the entry.
UniProt P08962, 2-238: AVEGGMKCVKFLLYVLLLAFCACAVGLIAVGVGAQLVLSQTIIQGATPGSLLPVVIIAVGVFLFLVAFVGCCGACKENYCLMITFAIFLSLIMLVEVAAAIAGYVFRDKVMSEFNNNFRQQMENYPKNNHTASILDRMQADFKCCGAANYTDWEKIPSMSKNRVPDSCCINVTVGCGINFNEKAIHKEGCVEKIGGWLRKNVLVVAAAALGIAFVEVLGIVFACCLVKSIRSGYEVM

The data set addresses CD63 on neutrophil-derived extracellular vesicles (NEVs) (human (peripheral blood neutrophils)) (UniProt P08962). Kind of data set: RCA-MB detection of aptamer retained on NEVs after washing. The conditions noted are these: 37 C, 1 h, 5 PBS washes, 95 C release, labeling state of aptamer not stated; native protein; single-stranded DNA.

On to “CACCCCACCTCGCTCCCGTGACACTAATGCTA [CD63 apt (unlabeled)]”, for which the binding result is on record as “binds”.

The values above are taken from paper PMC11924328.
